# Experimental data published in the supplement of paper PMC12823440, “Inhibitors supercharge kinase turnover through native proteolytic circuits” (Nature, 2025).
# The chains behind the UniProt entries cited, without tags or fusion partners. Where a name states a change or a piece, a line headed by the entry shows the natural chain unless it says otherwise.
# UniProt Q15208: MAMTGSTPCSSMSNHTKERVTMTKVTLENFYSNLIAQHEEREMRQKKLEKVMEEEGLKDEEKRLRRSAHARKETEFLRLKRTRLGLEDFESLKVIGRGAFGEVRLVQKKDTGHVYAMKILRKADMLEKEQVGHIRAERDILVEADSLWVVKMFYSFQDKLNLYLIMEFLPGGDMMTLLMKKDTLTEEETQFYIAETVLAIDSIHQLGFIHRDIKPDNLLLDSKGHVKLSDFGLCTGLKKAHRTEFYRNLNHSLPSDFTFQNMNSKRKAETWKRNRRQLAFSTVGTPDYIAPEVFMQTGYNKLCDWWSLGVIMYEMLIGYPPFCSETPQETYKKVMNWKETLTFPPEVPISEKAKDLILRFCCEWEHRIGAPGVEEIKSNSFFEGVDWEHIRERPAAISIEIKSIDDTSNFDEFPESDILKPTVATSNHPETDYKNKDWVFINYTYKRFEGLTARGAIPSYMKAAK
# UniProt P42680: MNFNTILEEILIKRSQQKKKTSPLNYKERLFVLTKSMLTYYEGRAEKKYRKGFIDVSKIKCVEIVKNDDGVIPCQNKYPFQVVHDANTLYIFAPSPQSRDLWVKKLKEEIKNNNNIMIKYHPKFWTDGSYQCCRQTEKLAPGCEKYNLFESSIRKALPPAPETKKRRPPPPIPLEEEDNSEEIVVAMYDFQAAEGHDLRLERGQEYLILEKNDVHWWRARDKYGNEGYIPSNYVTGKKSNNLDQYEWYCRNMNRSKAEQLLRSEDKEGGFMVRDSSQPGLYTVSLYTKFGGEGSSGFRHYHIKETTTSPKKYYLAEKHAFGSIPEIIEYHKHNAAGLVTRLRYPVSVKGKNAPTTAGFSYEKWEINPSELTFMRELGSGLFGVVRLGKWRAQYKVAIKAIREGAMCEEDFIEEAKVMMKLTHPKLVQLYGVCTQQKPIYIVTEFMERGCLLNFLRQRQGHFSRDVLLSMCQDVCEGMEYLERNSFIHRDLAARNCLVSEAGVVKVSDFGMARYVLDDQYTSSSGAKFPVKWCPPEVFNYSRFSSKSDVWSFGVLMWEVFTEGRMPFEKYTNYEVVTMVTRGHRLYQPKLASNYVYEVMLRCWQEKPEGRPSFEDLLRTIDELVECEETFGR
# UniProt P29597: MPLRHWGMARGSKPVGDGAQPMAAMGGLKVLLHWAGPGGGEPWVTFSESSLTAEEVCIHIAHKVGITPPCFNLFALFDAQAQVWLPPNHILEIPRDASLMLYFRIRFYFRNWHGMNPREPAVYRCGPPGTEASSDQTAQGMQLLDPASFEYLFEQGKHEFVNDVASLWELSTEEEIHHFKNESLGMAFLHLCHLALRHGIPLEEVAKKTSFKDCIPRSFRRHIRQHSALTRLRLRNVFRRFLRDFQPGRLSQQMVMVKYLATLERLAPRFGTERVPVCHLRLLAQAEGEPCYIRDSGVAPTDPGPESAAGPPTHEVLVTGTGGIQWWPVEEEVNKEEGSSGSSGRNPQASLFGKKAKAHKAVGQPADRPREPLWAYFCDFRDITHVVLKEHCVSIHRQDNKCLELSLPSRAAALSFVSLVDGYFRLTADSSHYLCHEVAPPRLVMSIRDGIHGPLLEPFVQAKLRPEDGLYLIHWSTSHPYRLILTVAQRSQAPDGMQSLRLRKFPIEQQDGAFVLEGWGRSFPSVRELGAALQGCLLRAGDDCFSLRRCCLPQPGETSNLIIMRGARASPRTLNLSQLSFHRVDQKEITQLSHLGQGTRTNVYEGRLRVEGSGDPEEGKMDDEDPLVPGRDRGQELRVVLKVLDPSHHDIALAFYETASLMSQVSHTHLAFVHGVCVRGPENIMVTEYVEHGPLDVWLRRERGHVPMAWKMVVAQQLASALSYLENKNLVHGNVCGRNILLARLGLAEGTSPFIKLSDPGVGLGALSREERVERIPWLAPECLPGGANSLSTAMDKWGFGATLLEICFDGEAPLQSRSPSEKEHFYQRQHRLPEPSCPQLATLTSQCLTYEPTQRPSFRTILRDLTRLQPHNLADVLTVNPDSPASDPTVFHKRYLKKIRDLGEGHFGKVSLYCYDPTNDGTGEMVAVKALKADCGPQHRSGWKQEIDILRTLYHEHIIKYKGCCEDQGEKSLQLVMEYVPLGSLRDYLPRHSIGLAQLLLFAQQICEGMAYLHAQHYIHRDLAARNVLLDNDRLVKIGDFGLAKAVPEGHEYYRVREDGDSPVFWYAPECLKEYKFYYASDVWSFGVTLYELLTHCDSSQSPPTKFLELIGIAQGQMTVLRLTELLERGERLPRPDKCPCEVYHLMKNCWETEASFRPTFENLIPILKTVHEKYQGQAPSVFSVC
# UniProt Q6PHR2: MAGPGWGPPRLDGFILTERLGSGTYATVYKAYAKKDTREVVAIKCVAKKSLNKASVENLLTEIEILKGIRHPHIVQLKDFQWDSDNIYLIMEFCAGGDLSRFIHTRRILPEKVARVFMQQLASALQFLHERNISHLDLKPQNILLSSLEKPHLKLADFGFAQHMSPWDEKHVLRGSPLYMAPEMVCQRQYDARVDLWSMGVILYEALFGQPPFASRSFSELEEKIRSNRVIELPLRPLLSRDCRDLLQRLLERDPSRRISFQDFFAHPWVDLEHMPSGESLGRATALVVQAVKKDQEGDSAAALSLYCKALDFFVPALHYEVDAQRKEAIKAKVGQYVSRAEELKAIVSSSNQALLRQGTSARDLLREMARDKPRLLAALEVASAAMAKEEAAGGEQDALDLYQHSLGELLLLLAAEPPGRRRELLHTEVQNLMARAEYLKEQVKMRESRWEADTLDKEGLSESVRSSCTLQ
# UniProt P07947, whole entry, looked up: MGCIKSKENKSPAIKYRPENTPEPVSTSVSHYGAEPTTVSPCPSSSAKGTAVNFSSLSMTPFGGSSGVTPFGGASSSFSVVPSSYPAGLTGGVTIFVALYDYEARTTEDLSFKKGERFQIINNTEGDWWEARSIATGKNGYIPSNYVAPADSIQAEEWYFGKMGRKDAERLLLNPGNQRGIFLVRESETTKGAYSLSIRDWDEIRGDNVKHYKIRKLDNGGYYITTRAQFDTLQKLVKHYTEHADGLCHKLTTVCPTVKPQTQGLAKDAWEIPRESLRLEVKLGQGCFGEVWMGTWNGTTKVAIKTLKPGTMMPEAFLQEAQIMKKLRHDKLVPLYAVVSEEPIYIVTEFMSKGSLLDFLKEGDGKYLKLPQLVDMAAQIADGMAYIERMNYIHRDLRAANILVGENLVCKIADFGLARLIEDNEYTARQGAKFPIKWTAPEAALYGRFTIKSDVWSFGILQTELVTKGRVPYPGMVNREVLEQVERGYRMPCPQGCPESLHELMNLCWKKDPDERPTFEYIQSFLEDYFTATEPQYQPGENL
# UniProt P00519, whole entry: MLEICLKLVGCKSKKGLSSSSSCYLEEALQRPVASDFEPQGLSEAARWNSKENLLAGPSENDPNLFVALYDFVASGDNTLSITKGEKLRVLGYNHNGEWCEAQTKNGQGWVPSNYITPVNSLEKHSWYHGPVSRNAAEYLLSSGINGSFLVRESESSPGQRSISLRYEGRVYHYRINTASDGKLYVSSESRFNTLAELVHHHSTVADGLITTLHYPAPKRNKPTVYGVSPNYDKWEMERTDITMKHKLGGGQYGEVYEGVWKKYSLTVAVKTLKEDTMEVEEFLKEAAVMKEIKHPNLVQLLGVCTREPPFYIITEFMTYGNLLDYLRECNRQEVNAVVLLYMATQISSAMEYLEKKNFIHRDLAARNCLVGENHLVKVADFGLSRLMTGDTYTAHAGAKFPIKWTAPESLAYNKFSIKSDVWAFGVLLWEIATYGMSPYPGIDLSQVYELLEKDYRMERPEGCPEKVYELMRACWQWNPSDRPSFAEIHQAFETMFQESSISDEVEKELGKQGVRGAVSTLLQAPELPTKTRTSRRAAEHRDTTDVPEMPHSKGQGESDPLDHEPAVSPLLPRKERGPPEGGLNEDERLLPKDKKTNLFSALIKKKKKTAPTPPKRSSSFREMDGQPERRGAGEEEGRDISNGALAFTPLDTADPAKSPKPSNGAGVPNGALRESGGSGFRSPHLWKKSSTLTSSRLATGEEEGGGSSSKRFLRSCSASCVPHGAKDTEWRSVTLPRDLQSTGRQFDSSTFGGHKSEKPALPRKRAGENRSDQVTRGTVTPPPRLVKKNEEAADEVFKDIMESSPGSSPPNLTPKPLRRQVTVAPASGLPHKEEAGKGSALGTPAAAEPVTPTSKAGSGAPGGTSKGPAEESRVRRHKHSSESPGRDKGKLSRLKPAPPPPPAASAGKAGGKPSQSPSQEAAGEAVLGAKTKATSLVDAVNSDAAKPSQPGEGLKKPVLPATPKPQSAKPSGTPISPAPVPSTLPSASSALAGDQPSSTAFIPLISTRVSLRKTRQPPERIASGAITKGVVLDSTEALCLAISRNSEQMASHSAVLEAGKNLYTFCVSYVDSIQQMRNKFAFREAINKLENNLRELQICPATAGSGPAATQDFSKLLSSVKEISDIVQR
# UniProt P31749: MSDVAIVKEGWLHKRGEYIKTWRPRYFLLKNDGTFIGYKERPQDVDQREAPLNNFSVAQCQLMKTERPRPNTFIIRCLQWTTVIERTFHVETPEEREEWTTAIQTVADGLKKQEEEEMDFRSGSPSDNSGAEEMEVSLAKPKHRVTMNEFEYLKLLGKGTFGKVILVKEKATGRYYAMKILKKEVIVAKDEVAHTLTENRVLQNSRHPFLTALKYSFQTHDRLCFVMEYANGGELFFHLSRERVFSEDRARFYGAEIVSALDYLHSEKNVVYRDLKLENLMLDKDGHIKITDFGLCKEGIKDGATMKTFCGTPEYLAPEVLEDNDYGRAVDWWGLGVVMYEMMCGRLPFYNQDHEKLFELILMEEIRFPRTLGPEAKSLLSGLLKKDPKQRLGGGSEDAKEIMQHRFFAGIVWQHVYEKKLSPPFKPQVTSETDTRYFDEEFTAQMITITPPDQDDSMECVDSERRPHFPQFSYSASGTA
# UniProt O14965: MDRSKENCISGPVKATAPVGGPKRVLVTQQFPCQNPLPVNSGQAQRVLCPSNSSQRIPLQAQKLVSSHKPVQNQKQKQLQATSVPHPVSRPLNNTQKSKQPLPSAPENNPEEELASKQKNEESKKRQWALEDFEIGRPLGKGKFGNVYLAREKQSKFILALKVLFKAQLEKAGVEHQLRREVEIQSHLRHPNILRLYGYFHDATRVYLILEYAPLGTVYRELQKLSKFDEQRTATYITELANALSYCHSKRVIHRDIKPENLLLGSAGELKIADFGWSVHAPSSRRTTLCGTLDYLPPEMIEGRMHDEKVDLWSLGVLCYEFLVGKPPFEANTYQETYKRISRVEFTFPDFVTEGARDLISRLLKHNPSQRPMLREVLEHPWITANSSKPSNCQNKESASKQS
# UniProt Q96GD4, whole entry: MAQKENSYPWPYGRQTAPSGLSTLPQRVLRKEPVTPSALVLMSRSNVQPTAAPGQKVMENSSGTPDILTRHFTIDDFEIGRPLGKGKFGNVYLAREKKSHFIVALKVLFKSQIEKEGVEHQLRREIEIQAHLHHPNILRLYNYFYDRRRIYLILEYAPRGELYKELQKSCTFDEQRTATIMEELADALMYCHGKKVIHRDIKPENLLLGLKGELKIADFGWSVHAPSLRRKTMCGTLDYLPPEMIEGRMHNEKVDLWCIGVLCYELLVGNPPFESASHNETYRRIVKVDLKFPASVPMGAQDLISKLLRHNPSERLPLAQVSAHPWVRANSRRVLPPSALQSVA
# UniProt Q9UQB9: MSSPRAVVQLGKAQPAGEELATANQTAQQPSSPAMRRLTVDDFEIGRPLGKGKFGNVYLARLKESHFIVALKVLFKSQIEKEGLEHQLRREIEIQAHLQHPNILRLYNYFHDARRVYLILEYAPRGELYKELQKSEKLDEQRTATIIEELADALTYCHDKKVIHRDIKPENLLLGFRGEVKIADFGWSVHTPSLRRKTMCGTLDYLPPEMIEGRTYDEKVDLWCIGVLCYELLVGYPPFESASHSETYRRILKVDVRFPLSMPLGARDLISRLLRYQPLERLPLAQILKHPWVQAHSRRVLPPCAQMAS
# UniProt P51451: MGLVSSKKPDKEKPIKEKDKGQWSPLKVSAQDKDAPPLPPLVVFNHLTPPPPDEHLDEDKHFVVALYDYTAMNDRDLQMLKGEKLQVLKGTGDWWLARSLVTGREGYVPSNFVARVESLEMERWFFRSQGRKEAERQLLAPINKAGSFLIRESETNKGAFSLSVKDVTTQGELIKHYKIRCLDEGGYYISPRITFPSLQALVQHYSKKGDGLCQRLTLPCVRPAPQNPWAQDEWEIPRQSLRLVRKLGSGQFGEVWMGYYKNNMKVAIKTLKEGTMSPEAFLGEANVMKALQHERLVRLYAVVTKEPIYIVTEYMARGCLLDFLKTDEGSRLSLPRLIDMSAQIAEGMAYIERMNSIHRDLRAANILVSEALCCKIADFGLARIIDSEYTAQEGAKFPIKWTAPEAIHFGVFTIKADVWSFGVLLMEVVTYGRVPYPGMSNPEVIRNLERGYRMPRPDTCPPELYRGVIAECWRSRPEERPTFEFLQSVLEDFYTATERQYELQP
# Where a name gives a salt, the structure may show the parent alone. This is one part of the list. The calls rarely recur for the same compound in another form.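 In K562 cells expressing nanoluciferase-fused kinases, luminescence was recorded at 4 h intervals between 2 and 18 h, normalized as percent of control with DMSO at 100% and a positive control at 0%. A significant (2 sigma) signal drop marks a time point as decreased. The authors' rule for a hit is not shown and takes in more than the number of time points.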
# Columns and labels:
# Settings in all cases: K562; 2-18 h
# STK38 = STK38 (UniProt Q15208); assay: kinase-Nluc reporter destabilization hit call (1 = scored as downregulated) (binary); higher = compound decreases kinase abundance
# SYK = SYK (UniProt P43405); assay: as above
# TEC = TEC (UniProt P42680); assay: as above
# TYK2 = TYK2 (UniProt P29597); assay: as above
# ULK3 = ULK3 (UniProt Q6PHR2); assay: as above
# YES1 = YES1 (UniProt P07947); assay: as above
# ZAK = ZAK (UniProt Q9NYL2); assay: as above
# ZAP70 = ZAP70 (UniProt P43403); assay: as above
# ABL1 = ABL1 (UniProt P00519); assay: number of time points (of 5) at which kinase-Nluc abundance scored as decreased, DMSO-normalised (count); higher = more persistent destabilization
# AKT1 = AKT1 (UniProt P31749); assay: as above
# ALK = ALK (UniProt Q9UM73); assay: as above
# ARAF = ARAF (UniProt P10398); assay: as above
# AURKA = AURKA (UniProt O14965); assay: as above
# AURKB = AURKB (UniProt Q96GD4); assay: as above
# AURKC = AURKC (UniProt Q9UQB9); assay: as above
# BLK = BLK (UniProt P51451); assay: as above
# BMX = BMX (UniProt P51813); assay: as above
# BRAF = BRAF (UniProt P15056); assay: as above
# BRAF_V600E = assay: as above
# BTK = BTK (UniProt Q06187); assay: as above
Structure (SMILES),kinase-Nluc reporter destabilization hit call (STK38),kinase-Nluc reporter destabilization hit call (SYK),kinase-Nluc reporter destabilization hit call (TEC),kinase-Nluc reporter destabilization hit call (TYK2),kinase-Nluc reporter destabilization hit call (ULK3),kinase-Nluc reporter destabilization hit call (YES1),kinase-Nluc reporter destabilization hit call (ZAK),kinase-Nluc reporter destabilization hit call (ZAP70),number of time points (ABL1),number of time points (AKT1),number of time points (ALK),number of time points (ARAF),number of time points (AURKA),number of time points (AURKB),number of time points (AURKC),number of time points (BLK),number of time points (BMX),number of time points (BRAF),number of time points (BRAF_V600E),number of time points (BTK)
COc1ccc2c3n(c(=NC(=O)c4cccnc4)nc2c1OC)CCN3 (2 µM),inactive: 0,inactive: 0,inactive: 0,inactive: 0,inactive: 0,inactive: 0,inactive: 0,inactive: 0,0,0,0,0,0,0,0,0,0,0,0,0
CC(C)[C@H](CO)Nc1nc(Nc2cccc(Cl)c2)c2ncn(C(C)C)c2n1 [Purvalanol A] (10 µM),inactive: 0,inactive: 0,inactive: 0,inactive: 0,inactive: 0,inactive: 0,inactive: 0,inactive: 0,0,0,0,0,0,0,0,0,0,5,0,0
O=C(Nc1ccc(Cl)cc1)C1CCCN(C(=O)c2cc(C(F)(F)F)cc(C(F)(F)F)c2)C1 (stereo not given) (10 µM),inactive: 0,inactive: 0,inactive: 0,inactive: 0,inactive: 0,inactive: 0,inactive: 0,inactive: 0,0,0,0,0,0,0,0,0,2,1,0,0
C=CC(=O)Nc1cc(Nc2nccc(-c3cn(C)c4ccccc34)n2)c(OC)cc1N(C)CCNC [AZ7550 Mesylate] (2.5 µM),inactive: 0,inactive: 0,inactive: 0,inactive: 0,inactive: 0,inactive: 0,inactive: 0,inactive: 0,2,0,0,0,0,0,0,2,0,0,2,0
O=c1cc(N2CCOCC2)oc2c(-c3ccc4c(c3)OCCO4)csc12 (2.5 µM),inactive: 0,inactive: 0,inactive: 0,inactive: 0,inactive: 0,inactive: 0,inactive: 0,inactive: 0,0,0,0,0,0,0,0,0,0,0,0,0
Cc1cnc(NC(=O)c2cc(Oc3cnc(C(=O)N(C)C)nc3)c3cc(C)oc3c2)cn1 (10 µM),inactive: 0,inactive: 0,inactive: 0,inactive: 0,inactive: 0,inactive: 0,inactive: 0,inactive: 0,0,0,0,0,0,0,0,0,0,0,0,0
Cn1cc(-c2cc(Oc3cc(F)c(NC(=O)C4(C(=O)Nc5ccccc5)CC4)cc3F)ccn2)cn1 (2.5 µM),inactive: 0,inactive: 0,inactive: 0,inactive: 0,inactive: 0,inactive: 0,inactive: 0,inactive: 0,0,0,0,0,0,0,0,0,0,0,0,0
Nc1nccc(-c2c(-c3ccc(F)cc3)ncn2C2CCCCC2)n1 (10 µM),inactive: 0,inactive: 0,inactive: 0,inactive: 0,inactive: 0,inactive: 0,inactive: 0,inactive: 0,0,0,0,0,0,0,0,0,0,0,0,0
CC1CN(CC2CCN(Cc3ccccc3)CC2)C(=O)N(c2cccc(C(=N)N)c2)C1 (stereo not given) (10 µM),inactive: 0,inactive: 0,inactive: 0,inactive: 0,inactive: 0,inactive: 0,inactive: 0,inactive: 0,0,0,0,0,0,0,0,0,0,0,0,0
O=C(O)c1ccc(/C=C/S(=O)(=O)Cc2ccc(Cl)cc2)cc1 [Recilisib] (10 µM),inactive: 0,inactive: 0,inactive: 0,inactive: 0,inactive: 0,inactive: 0,inactive: 0,inactive: 0,0,0,0,0,0,0,0,0,0,0,0,0
COc1cc2nccc(Oc3ccc(NC(=O)c4cn(C(C)C)c(=O)n(-c5ccc(F)cc5)c4=O)cc3F)c2cc1OC (0.5 µM),inactive: 0,inactive: 0,inactive: 0,inactive: 0,inactive: 0,inactive: 0,inactive: 0,inactive: 0,4,1,0,0,1,0,0,0,2,0,0,0
O=c1c2c([nH]n1-c1nc3ccccc3s1)CCCC2 (10 µM),inactive: 0,inactive: 0,inactive: 0,inactive: 0,inactive: 0,inactive: 0,inactive: 0,inactive: 0,0,0,0,0,0,0,0,0,0,0,0,0
Nc1[nH]nc2nc(-c3ccc(NS(=O)(=O)c4cc(Cl)ccc4Cl)cc3)cnc12 (10 µM),inactive: 0,inactive: 0,inactive: 0,inactive: 0,inactive: 0,inactive: 0,inactive: 0,inactive: 0,0,0,0,0,0,0,0,0,0,0,0,0
CCNC(=O)C#Cc1ccc2c(C(=Nc3ccc(CN(C)C)cc3)c3ccccc3)c(O)[nH]c2c1 (2.5 µM),inactive: 0,inactive: 0,inactive: 0,inactive: 0,inactive: 0,inactive: 0,inactive: 0,inactive: 0,0,0,0,0,0,0,0,0,0,0,0,0
CO[C@H]1C[C@@H]2CC[C@@H](C)[C@@](O)(O2)C(=O)C(=O)N2CCCC[C@H]2C(=O)O[C@H]([C@H](C)C[C@@H]2CC[C@@H](OCCO)[C@H](OC)C2)CC(=O)[C@H](C)/C=C(\C)[C@@H](O)[C@@H](OC)C(=O)[C@H](C)C[C@H](C)/C=C/C=C/C=C/1C [Everolimus] (10 µM),inactive: 0,inactive: 0,inactive: 0,inactive: 0,inactive: 0,inactive: 0,inactive: 0,inactive: 0,0,0,0,0,0,0,0,0,0,0,0,0
O=C(Nc1cccc(-c2nc(-c3ccc(NC(=O)c4cccnc4)cc3Cl)no2)c1)Nc1ccc(NC(=O)C2CC2)c(C(F)(F)F)c1 (2.5 µM),inactive: 0,inactive: 0,inactive: 0,inactive: 0,inactive: 0,inactive: 0,inactive: 0,inactive: 0,0,0,0,0,0,0,0,0,0,0,0,0
COc1cc(-c2cc(-c3ccc(N4CCNCC4)cc3)cnc2C)cc(OC)c1OC (10 µM),inactive: 0,inactive: 0,inactive: 0,inactive: 0,inactive: 0,inactive: 0,inactive: 0,inactive: 0,0,0,0,0,0,0,0,0,0,0,0,0
Cc1cc(C(=O)NC(C)(C)C)cc(C#Cc2ccc3c4c(oc3c2)C(C)(C)c2cc(NS(C)(=O)=O)ccc2C4=O)n1 (10 µM),inactive: 0,inactive: 0,inactive: 0,inactive: 0,inactive: 0,inactive: 0,inactive: 0,inactive: 0,2,0,0,0,0,0,0,0,0,0,0,0
COc1cc2ncnc(Oc3ccc(CC(=O)Nc4cnn(C(C)C)c4)cc3)c2cc1OC (10 µM),inactive: 0,inactive: 0,inactive: 0,inactive: 0,inactive: 0,inactive: 0,inactive: 0,inactive: 0,1,0,0,0,0,0,0,0,0,0,0,0
O=c1[nH]ccc2nc(-c3ccc(CN4CCC(c5nc(-c6ccccn6)n[nH]5)CC4)cc3)c(-c3ccccc3)cc12 (10 µM),inactive: 0,inactive: 0,inactive: 0,inactive: 0,inactive: 0,inactive: 0,inactive: 0,inactive: 0,0,0,0,0,0,0,0,0,0,0,0,0
CC(C)n1c([C@H](C)Nc2ncnc(N)c2C#N)cc2cccc(-c3ccc(=O)n(C)c3)c2c1=O (10 µM),inactive: 0,inactive: 0,inactive: 0,inactive: 0,inactive: 0,inactive: 0,inactive: 0,inactive: 0,0,0,0,0,0,0,0,0,0,0,0,0

# Pulled by structure from the list above:
Structure (SMILES),kinase-Nluc reporter destabilization hit call (STK38),kinase-Nluc reporter destabilization hit call (SYK),kinase-Nluc reporter destabilization hit call (TEC),kinase-Nluc reporter destabilization hit call (TYK2),kinase-Nluc reporter destabilization hit call (ULK3),kinase-Nluc reporter destabilization hit call (YES1),kinase-Nluc reporter destabilization hit call (ZAK),kinase-Nluc reporter destabilization hit call (ZAP70),number of time points (ABL1),number of time points (AKT1),number of time points (ALK),number of time points (ARAF),number of time points (AURKA),number of time points (AURKB),number of time points (AURKC),number of time points (BLK),number of time points (BMX),number of time points (BRAF),number of time points (BRAF_V600E),number of time points (BTK)
CC(C)n1c([C@H](C)Nc2ncnc(N)c2C#N)cc2cccc(-c3ccc(=O)n(C)c3)c2c1=O (10 µM),inactive: 0,inactive: 0,inactive: 0,inactive: 0,inactive: 0,inactive: 0,inactive: 0,inactive: 0,0,0,0,0,0,0,0,0,0,0,0,0
CC(C)[C@H](CO)Nc1nc(Nc2cccc(Cl)c2)c2ncn(C(C)C)c2n1 [Purvalanol A] (10 µM),inactive: 0,inactive: 0,inactive: 0,inactive: 0,inactive: 0,inactive: 0,inactive: 0,inactive: 0,0,0,0,0,0,0,0,0,0,5,0,0
